{"source": "patent US8697117B2", "about": "“Drug-eluting films” (Ramot at Tel-Aviv University Ltd., priority 2010, dated 2014)", "type_in_all_cases": "physicochemical", "key": {"[1]": {"assay": "In vitro drug release from films in PBS at 37° C. (HPLC)", "conditions": "50:50 PDLGA film, O:A 4:1, 1.42% w/w drug, 28000 rpm", "experimental": "Small films of 1.5 cm by 0.5 cm, were immersed in phosphate buffered saline (PBS) at 37° C. for 70 days in order to determine the various drug release kinetics therefrom in four repetitions. The release studies were conducted in closed glass tubes containing 3.0 ml PBS medium. The medium was removed completely at various time points, and at each sampling time fresh medium was introduced. The medium's drug concentration was determined using Jasco High Performance Liquid Chromatography (HPLC) with a UV 2075 plus detector and a reverse phase column kept at 25° C."}, "[2]": {"assay": "Encapsulation efficiency of the loaded agent in the films"}, "[3]": {"assay": "Morphological characterization of porous films by SEM (mean pore diameter, porosity)", "experimental": "The morphology of the porous films (cryogenically fractured surfaces) was observed by scanning electron microscopy (SEM) using a JEOL JSM-6300 microscope at an accelerating voltage of 5 kV. The SEM samples were Au-sputtered prior to observation. The mean pore diameter (n=100 small pores or 50 large pores) and porosity of the observed morphologies were analyzed using the Sigma Scan Pro software, and statistics were calculated using SPSS 10 software. Statistical significance was determined based on ANOVA (Tukey-Kramer). The area occupied by the pores was calculated for each SEM fractograph using Sigma Scan Pro software in order to evaluate the porosity of the samples. Porosity was determined as the area occupied by the pores divided by the total area."}, "[4]": {"conditions": "drug-loaded 50:50 PDLGA 17.5% w/v film, no surfactant, 28 000 rpm"}, "[5]": {"conditions": "drug-loaded film, BSA (5%), 14 000 rpm"}, "[6]": {"conditions": "drug-loaded film, BSA (5%), 28 000 rpm"}, "[7]": {"conditions": "drug-loaded film, HRP (5%) as surfactant, 28 000 rpm"}, "[8]": {"conditions": "drug-loaded film, no surfactant, 14 000 rpm"}}, "note": "Values joined by “and” are separate entries in the source; they are usually repeats but may differ in a detail not shown here. Equal entries are not always repeated. At least one compound was matched to its structure with a doubt left.", "data": [{"molecule": "CC(C)=CCC/C(C)=C/CC/C(C)=C/CSc1ccccc1C(=O)O", "note": "[FTS, Farnesylthiosalicylate]", "values": [{"measurement": "burst release", "setting": "[1]; 5% w/v BSA", "result": 59, "unit": "%"}, {"measurement": "burst release and release rate", "setting": "[1]; 5% w/v HRP as surfactant", "result": "higher than from the films with no surfactants but lower than from films containing BSA"}, {"measurement": "burst release", "setting": "[1]; no surfactant", "result": 12, "unit": "%"}, {"measurement": "Encapsulation efficiency", "setting": "[2]; [4]", "result": "83.1 ± 4.0", "unit": "%"}, {"measurement": "Encapsulation efficiency", "setting": "[2]; [5]", "result": "60.7 ± 2.4", "unit": "%"}, {"measurement": "Encapsulation efficiency", "setting": "[2]; [6]", "result": "80.0 ± 6.0", "unit": "%"}, {"measurement": "Encapsulation efficiency", "setting": "[2]; [7]", "result": "78.3 ± 2.8", "unit": "%"}, {"measurement": "Encapsulation efficiency", "setting": "[2]; [8]", "result": "65.5 ± 2.1", "unit": "%"}, {"measurement": "Mean pore diameter", "setting": "[3]; [4]", "result": "2.4 ± 0.8", "unit": "μm"}, {"measurement": "Porosity", "setting": "[3]; [4]", "result": "88.9 ± 1.9", "unit": "%"}, {"measurement": "Mean pore diameter", "setting": "[3]; [5]", "result": "1.3 ± 0.3", "unit": "μm"}, {"measurement": "Porosity", "setting": "[3]; [5]", "result": "78.9 ± 3.3", "unit": "%"}, {"measurement": "Mean pore diameter", "setting": "[3]; [6]", "result": "0.6 μm and 0.6 ± 0.2 μm"}, {"measurement": "Porosity", "setting": "[3]; [6]", "result": "81.4 ± 2.5", "unit": "%"}, {"measurement": "Mean pore diameter", "setting": "[3]; [7]", "result": "0.4 μm and 0.4 ± 0.1 μm"}, {"measurement": "Porosity", "setting": "[3]; [7]", "result": "69.5 ± 2.1", "unit": "%"}, {"measurement": "Mean pore diameter", "setting": "[3]; [8]", "result": "3.9 ± 1.7", "unit": "μm"}, {"measurement": "Porosity", "setting": "[3]; [8]", "result": "81.1 ± 2.0", "unit": "%"}]}]}
